Assay results reported in US20250277023A1.
Residue numbers refer to the chain shown, from its start. Results are given in words; binding and its absence hold for the method and conditions named. Some results given as binding are weak or reduced against the parent protein; the word gives no strength. Blank lines part the entries; values can stand above or below the binder they belong to.

Chains of the proteins cited; added tags and fusions are not shown. Residues count along the entry.
UniProt Q9NZQ7, residues 19-290: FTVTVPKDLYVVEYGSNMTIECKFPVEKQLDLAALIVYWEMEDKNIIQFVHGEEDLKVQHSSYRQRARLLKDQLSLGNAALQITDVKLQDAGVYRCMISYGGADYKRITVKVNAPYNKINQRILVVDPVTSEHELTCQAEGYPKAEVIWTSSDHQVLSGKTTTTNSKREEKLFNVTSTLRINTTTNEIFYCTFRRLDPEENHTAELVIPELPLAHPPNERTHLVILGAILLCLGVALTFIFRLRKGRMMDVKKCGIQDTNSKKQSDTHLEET
UniProt Q495A1, residues 22-244: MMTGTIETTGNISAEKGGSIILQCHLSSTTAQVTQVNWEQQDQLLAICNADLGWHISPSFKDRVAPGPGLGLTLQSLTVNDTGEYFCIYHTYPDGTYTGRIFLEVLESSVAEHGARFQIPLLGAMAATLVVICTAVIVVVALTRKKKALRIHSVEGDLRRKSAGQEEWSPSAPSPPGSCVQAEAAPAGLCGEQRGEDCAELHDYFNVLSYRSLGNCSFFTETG

Assays:
[1] = target: PD-L1 (on CHO-PD-L1 cells) (UniProt Q9NZQ7); test: flow cytometry (FCM) on CHO-PD-L1 cells, positive antibody
[2] = target: TIGIT (on CHO-TIGIT cells) (UniProt Q495A1); test: flow cytometry (FCM) on CHO-TIGIT cells

binding [1]: binds
B1: R0919 (PD-L1 monoclonal antibody) (antibody, V domains shown)
VH: EVQLQESGPGLVKPSETLSLTCAVYGDSITSGYWNWIRKPPGKGLEYMGYISYTGSTYQNPSLKSRITFSRDTSKNQYYLKLSSVTAADTATYYCARSRAWIRTYFDYWGQGTLVTVSS
VL: EIVLTQSPDFQSVTPKEKVTITCSVSSSISSSNLHWYQQKPDQSPKLLIYGTSNLASGVPSRFSGSGSGTDFTLTINSLEAEDAATYYCQQWSSYPLTFGQGTKLEIK

binding [1]: binds
B2: R0968 (PD-L1 monoclonal antibody) (antibody, V domains shown)
VH: B1 VH with E1Q, G44C, M48I, F69M, T92V
VL: DIQMTQSPSSLSASVGDRVTITCSVSSSISSSNLHWYQQKPGKAPKPWIYGTSNLASGVPSRFSGSGSGTDYTLTISSLQPEDFATYYCQQWSSYPLTFGCGTKLEIK

binding [2]: binds
B3: R0774 (Tigit monoclonal antibody) (antibody, V domains shown)
VH: QVQLVQSGAEVKKPGSSVKVSCKASGYSFTSYWMNWVRQAPGQGLEWIGMIRPSDSETRLNQMFKDRVTITVDKSTSTAYMELSSLRSEDTAVYYCAGIHDYGHGAYWGQGTLVTVSS
VL: DIQMTQSPSSLSASVGDRVTITCRASENIYSNLAWYQQKPGKSPKLLVYAASHLPDGVPSRFSGSGSGTDYSLTISSLQPEDFATYYCQHFWGTPRTFGQGTKLEIK
